These results are taken from article PMC6168459.

Sequences of proteins named here, by UniProt entry; tags and fusion partners are left off. A change or cut given only in a name is not applied to a line headed by its entry.
UniProt P11413: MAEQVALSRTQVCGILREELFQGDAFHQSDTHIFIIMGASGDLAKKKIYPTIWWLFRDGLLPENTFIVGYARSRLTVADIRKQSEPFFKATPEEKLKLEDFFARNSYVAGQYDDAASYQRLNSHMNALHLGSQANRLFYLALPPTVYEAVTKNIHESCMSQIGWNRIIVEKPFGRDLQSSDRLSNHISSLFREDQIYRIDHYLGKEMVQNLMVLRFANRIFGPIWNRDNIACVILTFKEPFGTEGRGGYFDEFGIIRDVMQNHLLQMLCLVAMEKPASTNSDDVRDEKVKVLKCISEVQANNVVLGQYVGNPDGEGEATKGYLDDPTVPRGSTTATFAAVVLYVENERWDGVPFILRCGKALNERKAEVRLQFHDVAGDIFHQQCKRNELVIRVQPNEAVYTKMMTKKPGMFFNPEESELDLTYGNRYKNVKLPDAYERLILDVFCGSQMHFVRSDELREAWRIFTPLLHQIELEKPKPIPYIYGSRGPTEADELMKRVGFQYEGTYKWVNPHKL

No constants are given. Whether binding was seen depends on the method and setting.

The target of this assay is Canton G6PD variant (R459L) (human) (UniProt P11413). The assay can be described thus: condition: only with 10 mM G6P (removes the structural NADP+); SEC; size-exclusion FPLC, calibrated Superdex 75 10/300 GL; 200 ug purified Canton G6PD incubated with 10 mM G6P to remove the structural NADP+; both purified.

Take “Canton G6PD variant (R459L) (from UniProt P11413 1-515) (enzyme)”: the binding entry is “no binding”.
